Source: patent US12268747B2, “Polypeptides having anti-senescent effects and uses thereof” (OneSkin, Inc., priority 2019, dated 2025)
Part of at least one peptide drawing is inferred or uncertain, most often the ends. Peptide text beside a SMILES is read from it.

Legend:
[1] = test system: ex vivo human skin samples; experiment: Ex vivo human skin: histology and DNA methylation predicted age; assay type: cell-based; conditions: 12.5 μM, 5 days; untreated about 71; p<0.01
[2] = test system: human primary fibroblasts isolated from 3 healthy donors, etoposide-stressed; experiment: Etoposide-induced senescence in fibroblasts; assay type: cell-based; conditions: 48 hours after etoposide
Protocol: Cellular senescence may be caused by several different stimuli. In order to assess whether Peptide 14 was effective against UVB-induced and chemically-induced senescence, human primary fibroblasts isolated from 3 healthy donors were used. These cells were cultured in DMEM (Dulbecco's Modified Eagle's Medium) supplemented with 10% v.v. fetal bovine serum (FBS), and 1% v.v. of penicillin/streptomycin solution (1,000 U·mL−1). Cells were kept in a 5% CO2, 37° C. and 95% humidity atmosphere. After expansion, these cells were seeded in 96-well plates (4,000 cells per well) and, 6 hours after plating, were submitted to either etoposide (20 μM) treatment for 24 hours, or exposed twice to 0.05 J/cm^2 of UVB radiation. […] After incubation, relative cellular senescence (assessed by the activity of senescence associated β-galactosidase staining relative to untreated control) was analyzed and plotted in column graphs. ATRX foci were also assessed following ATRX immunofluorescence staining. Graphs were built using the average ATRX foci detected per nuclei. […] Data was analyzed using with either t-test or ANOVA followed by a Bonferroni post-hoc test. Statistical significance was determined as p-values equal or lower than 0.05 (FIG. 6).

[3] = test system: SIRT6, BLM mRNA in fibroblasts; experiment: mRNA expression (qPCR) in fibroblasts; assay type: cell-based, human; conditions: 48 hours
MeWo cells = experiment: Melanin content of MeWo cells, 7 days treatment; assay type: cell-based, human; conditions: 7 days after 14 day IBMX pre-treatment; Peptide 14 3.12 μM or retinoic acid 2 μM with 25 μM IBMX; positive control 25 μM IBMX
Protocol: To test whether Peptide 14 promotes depigmentation of melanocytes, MeWo cells were cultured in DMEM supplemented with 10% v/v FBS and 1% v/v of penicillin/streptomycin solution (1,000 U·mL^−1) at 5% CO2, 37° C. and 95% humidity. For two weeks prior to treatment with one of the experimental conditions (pre-treatment), the MeWo cells were cultured with isobutyl methylxanthine (IBMX) to stimulate melanin synthesis. After the MeWo cells were seeded in 6-well plates at 1,000,000 cells per well for 6 hours, the cells were incubated with one of the experimental conditions for 7 days and analyzed for intracellular and supernatant melanin content.
The experimental conditions included a positive control group, a negative control group, a Peptide 14 (IBMX) 7d group, and a retinoic acid (IBMX) 7d group. The negative control group comprised MeWo cells which were stimulated with 25 μM IBMX for 2 weeks in the pre-treatment period and then were untreated for 7 days, receiving the vehicle only, after being plated for the experiment. The positive control group comprised MeWo cells that were incubated with 25 μM IBMX during the entire experiment, for 2 weeks in the pre-treatment period and for 7 days in the treatment period. The Peptide 14 (IBMX) 7d group comprised MeWo cells that were incubated with 25 μM IBMX 2 weeks in the pre-treatment period and then treated for 7 days with 25 μM IBMX and 3.12 μM Peptide 14. The retinoic acid (IBMX) 7d group comprised MeWo cells that were incubated with 25 μM IBMX 2 weeks in the pre-treatment period and then treated for 7 days with 25 μM IBMX and 2 μM retinoic acid.
After treatment, the melanin content in the cell pellet and the cell culture supernatant was assessed by the absorbance of the samples at 492 nm. […] Data are presented as relative melanin content, absorbance of the samples at a specified wavelength (492 nm) normalized to the absorbance of the negative control samples also as the same wavelength. […] The data were analyzed using ANOVA and Bonferroni post-hoc test when a statistical significance was detected. […]

3D skin models = experiment: In vitro 3D skin model: histology and DNA methylation predicted age; assay type: cell-based, human; conditions: 12.5 μM, 5 days; untreated about 80; p=0.25
[4] = test system: Primary fibroblasts isolated from 7 healthy chronologically aged patients; experiment: ATRX foci dose response in fibroblasts of 7 donors; assay type: cell-based, human; conditions: 1.56-25 μM, 48 hours, covariance analysis
human skin equivalents = experiment: Epidermal thickness of human skin equivalents; assay type: cell-based; conditions: 0.01% w.v., 5 days

Compound: CC[C@H](C)[C@H](NC(=O)CNC(=O)[C@H](CCCCN)NC(=O)[C@H](CC(C)C)NC(=O)[C@H](Cc1c[nH]c2ccccc12)NC(=O)[C@H](Cc1c[nH]cn1)NC(=O)[C@H](CCCCN)NC(=O)[C@H](C)NC(=O)[C@@H](NC(=O)[C@@H](N)CCC(=O)O)[C@@H](C)O)C(=O)O [Peptide 14, ETAKHWLKGI] (H-ETAKHWLKGI-OH; N-terminus and C-terminus assumed)
- mean of predicted age (molecular DNA age) [1]: about 68
- SA-β-galactosidase staining ([2]; 2.5 μM or 5 μM): significantly reduced
- average ATRX foci/cell ([2]; 2.5 μM): significantly reduced
- BLM mRNA expression [3]: increased
- SIRT6 mRNA expression [3]: increased
- relative melanin content, cell culture supernatant (MeWo cells): about 70 % of the negative control group
- relative melanin content, cell pellet (MeWo cells): about 90 % of the negative control group
- mean of predicted age (molecular DNA age) (3D skin models): about 66
- number of ATRX foci/nuclei [4]: significantly reduced
- epidermal thickness (total epidermal area) vs untreated control (human skin equivalents): increased epidermal thickness
